Measurements: publication PMC4997571
Results are given in words; binding and its absence hold for the method and conditions named. For some assays here: In cells and extracts the contact can be indirect. Some entries that bind do so weakly or less than the wild type. For some assays here: Where a sequence is shown, tags or fusion partners need not be part of it.

By UniProt entry, the sequences of proteins in these tests, tags left out.
UniProt P15682: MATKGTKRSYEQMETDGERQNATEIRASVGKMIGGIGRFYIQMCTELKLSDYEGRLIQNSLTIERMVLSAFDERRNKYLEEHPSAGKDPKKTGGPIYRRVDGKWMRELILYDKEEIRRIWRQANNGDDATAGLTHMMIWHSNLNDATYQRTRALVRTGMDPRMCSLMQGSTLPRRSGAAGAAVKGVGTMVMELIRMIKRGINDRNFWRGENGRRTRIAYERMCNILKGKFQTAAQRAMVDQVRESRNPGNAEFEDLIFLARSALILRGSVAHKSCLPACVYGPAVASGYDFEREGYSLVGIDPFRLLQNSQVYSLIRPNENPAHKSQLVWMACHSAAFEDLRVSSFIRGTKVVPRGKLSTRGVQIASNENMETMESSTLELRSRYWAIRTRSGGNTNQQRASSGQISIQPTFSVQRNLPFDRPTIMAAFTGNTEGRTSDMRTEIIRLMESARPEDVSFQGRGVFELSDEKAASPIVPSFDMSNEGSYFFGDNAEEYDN
UniProt O14980: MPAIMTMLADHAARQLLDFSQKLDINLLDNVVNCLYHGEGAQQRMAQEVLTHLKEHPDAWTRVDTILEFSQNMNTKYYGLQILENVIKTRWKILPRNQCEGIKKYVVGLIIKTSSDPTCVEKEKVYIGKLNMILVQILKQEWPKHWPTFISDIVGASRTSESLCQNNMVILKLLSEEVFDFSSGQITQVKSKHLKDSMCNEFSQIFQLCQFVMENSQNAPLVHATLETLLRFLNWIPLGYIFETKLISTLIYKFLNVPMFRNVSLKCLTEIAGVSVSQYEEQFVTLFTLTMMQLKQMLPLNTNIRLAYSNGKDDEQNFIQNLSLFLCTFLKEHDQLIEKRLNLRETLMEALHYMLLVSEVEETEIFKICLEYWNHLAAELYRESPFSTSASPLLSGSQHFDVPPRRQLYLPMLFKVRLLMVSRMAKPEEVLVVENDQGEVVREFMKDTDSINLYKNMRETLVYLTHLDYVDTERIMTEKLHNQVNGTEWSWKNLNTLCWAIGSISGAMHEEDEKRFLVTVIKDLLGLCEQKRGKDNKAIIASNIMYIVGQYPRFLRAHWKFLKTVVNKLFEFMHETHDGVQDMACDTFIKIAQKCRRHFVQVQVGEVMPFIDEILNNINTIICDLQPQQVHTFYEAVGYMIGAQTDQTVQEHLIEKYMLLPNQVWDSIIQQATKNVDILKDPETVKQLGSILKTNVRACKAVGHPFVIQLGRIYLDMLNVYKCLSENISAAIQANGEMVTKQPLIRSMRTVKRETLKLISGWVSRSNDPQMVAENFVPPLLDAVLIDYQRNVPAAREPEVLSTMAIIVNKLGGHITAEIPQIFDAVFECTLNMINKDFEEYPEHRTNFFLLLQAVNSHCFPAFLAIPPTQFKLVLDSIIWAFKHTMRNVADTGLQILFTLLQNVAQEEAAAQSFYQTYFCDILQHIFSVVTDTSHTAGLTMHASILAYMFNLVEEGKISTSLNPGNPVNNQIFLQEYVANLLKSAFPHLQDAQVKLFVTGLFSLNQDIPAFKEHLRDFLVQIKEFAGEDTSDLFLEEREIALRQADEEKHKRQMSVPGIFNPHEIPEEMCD

What was measured:
[1] = biological target: Influenza A/WSN/33 (H1N1) nucleoprotein with FLAG tag (NP-FLAG) (Influenza A/WSN/33 (H1N1)) (UniProt P15682); assay: pull-down; only the target purified
[2] = biological target: CRM1-HA (human (cDNA of HeLa cells)) (UniProt O14980); assay: pull-down; both purified
[3] = biological target: T1, HA-NXT1 (human (cDNA of HeLa cells)) (UniProt Q9UKK6); assay: pull-down; both purified
T1 sequence: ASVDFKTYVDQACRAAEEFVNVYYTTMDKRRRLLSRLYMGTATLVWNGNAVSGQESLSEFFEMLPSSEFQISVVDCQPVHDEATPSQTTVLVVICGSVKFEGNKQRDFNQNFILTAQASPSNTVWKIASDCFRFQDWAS

[4] = biological target: Influenza A/WSN/33 (H1N1) nucleoprotein with FLAG tag (NP-FLAG) (Influenza A/WSN/33 (H1N1)) (UniProt P15682); assay: co-IP

Chromosome region maintenance 1 (CRM1), endogenous (from UniProt O14980 1-1071)
binding [1]: binds

Influenza A/WSN/33 (H1N1) nucleoprotein with FLAG tag (NP-FLAG) (from UniProt P15682 1-498)
binding [2]: binds | binding [3]: binds

B1: HA-NXT1 (protein, UniProt Q9UKK6 2-140)
chain: ASVDFKTYVDQACRAAEEFVNVYYTTMDKRRRLLSRLYMGTATLVWNGNAVSGQESLSEFFEMLPSSEFQISVVDCQPVHDEATPSQTTVLVVICGSVKFEGNKQRDFNQNFILTAQASPSNTVWKIASDCFRFQDWAS
binding [4]: binds

B2: Nuclear transport factor 2 (NTF2)-like export protein 1 (NXT1), endogenous (protein, UniProt Q9UKK6 1-140)
chain: MASVDFKTYVDQACRAAEEFVNVYYTTMDKRRRLLSRLYMGTATLVWNGNAVSGQESLSEFFEMLPSSEFQISVVDCQPVHDEATPSQTTVLVVICGSVKFEGNKQRDFNQNFILTAQASPSNTVWKIASDCFRFQDWAS
binding [1]: binds
